Test results from paper doi:10.1101/2024.04.22.590616.
No constants are given. Whether binding was seen depends on the method and setting. Some entries that bind do so weakly or less than the wild type. For some of these results: Tags and fused reporters may be left off the sequences shown.

T1: Shu2 (S. cerevisiae) (UniProt P38957)
T1 sequence: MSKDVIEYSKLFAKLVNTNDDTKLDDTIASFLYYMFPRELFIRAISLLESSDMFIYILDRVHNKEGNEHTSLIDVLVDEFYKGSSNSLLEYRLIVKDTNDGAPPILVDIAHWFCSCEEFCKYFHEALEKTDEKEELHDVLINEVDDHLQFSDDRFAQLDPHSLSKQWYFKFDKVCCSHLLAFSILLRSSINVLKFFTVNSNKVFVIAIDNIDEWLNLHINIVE

T2: Psy3 K52A (S. cerevisiae) (UniProt Q12318)
T2 sequence: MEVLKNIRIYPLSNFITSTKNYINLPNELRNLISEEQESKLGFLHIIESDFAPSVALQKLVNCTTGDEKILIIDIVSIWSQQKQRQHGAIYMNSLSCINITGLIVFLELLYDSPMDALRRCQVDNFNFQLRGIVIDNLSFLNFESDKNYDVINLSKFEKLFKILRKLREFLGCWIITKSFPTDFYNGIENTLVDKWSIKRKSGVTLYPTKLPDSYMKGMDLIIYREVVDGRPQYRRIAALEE

T3: Psy3 D136A (S. cerevisiae) (UniProt Q12318)
T3 sequence: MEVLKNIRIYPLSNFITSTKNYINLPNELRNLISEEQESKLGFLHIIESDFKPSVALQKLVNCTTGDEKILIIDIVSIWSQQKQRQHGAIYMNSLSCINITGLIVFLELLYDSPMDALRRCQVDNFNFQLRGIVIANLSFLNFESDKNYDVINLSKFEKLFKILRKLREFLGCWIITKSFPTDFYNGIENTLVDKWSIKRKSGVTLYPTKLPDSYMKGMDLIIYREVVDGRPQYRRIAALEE

T4: Psy3 (native, tag-free) (S. cerevisiae) (UniProt Q12318)
T4 sequence: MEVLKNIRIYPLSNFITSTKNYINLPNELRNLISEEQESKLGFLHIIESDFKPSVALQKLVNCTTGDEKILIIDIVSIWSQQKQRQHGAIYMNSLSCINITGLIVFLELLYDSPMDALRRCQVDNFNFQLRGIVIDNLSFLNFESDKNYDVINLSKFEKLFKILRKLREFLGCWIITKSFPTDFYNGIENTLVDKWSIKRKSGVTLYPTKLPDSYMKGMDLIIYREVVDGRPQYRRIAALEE

T5: Psy3 with a His-MBP tag (S. cerevisiae) (UniProt Q12318)
T5 sequence: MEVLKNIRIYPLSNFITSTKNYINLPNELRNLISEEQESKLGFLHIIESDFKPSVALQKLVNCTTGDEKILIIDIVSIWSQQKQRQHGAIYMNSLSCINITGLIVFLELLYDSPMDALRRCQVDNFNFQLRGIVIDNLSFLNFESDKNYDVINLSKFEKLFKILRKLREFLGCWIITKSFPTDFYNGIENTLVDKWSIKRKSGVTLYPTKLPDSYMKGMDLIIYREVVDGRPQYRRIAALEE


What was measured:
Experiment in all cases: SEC
Shu2 (S. cerevisiae) = molecular target: T1, Shu2 (S. cerevisiae)
[1] = molecular target: T2, Psy3 K52A (S. cerevisiae)
[2] = molecular target: T3, Psy3 D136A (S. cerevisiae)
[3] = molecular target: T4, Psy3 (native, tag-free) (S. cerevisiae)
[4] = molecular target: T5, Psy3 with a His-MBP tag (S. cerevisiae)

Row | Binder | binding (Shu2 (S. cerevisiae)) | other results
1 | Psy3 (native, tag-free) (protein, UniProt Q12318 1-242) MEVLKNIRIYPLSNFITSTKNYINLPNELRNLISEEQESKLGFLHIIESDFKPSVALQKLVNCTTGDEKILIIDIVSIWSQQKQRQHGAIYMNSLSCINITGLIVFLELLYDSPMDALRRCQVDNFNFQLRGIVIDNLSFLNFESDKNYDVINLSKFEKLFKILRKLREFLGCWIITKSFPTDFYNGIENTLVDKWSIKRKSGVTLYPTKLPDSYMKGMDLIIYREVVDGRPQYRRIAALEE | binds | 
2 | Psy3 D136A (protein, UniProt Q12318 1-242) MEVLKNIRIYPLSNFITSTKNYINLPNELRNLISEEQESKLGFLHIIESDFKPSVALQKLVNCTTGDEKILIIDIVSIWSQQKQRQHGAIYMNSLSCINITGLIVFLELLYDSPMDALRRCQVDNFNFQLRGIVIANLSFLNFESDKNYDVINLSKFEKLFKILRKLREFLGCWIITKSFPTDFYNGIENTLVDKWSIKRKSGVTLYPTKLPDSYMKGMDLIIYREVVDGRPQYRRIAALEE | binds | 
3 | Shu1 (protein, UniProt P38751 1-150) MQFEERLQQLVESDWSLDQSSPNVLVIVLGDTARKYVELGGLKEHVTTNTVAGHVASRERVSVVFLGRVKYLYMYLTRMQAQANGPQYSNVLVYGLWDLTATQDGPQQLRLLSLVLRQCLSLPSKVEFYPEPPSSSVPARLLRFWDHIIR | binds | 
4 | Csm2 (protein, UniProt P40465 1-213) MEYEDLELITIWPSPTKNKLCQFIKQNLSKEHVVTQLFFIDATSSFPLSQFQKLVPPTLPENVRIYENIRINTCLDLEELSAITVKLLQILSMNKINAQRGTEDAVTEPLKIILYINGLEVMFRNSQFKSSPQRSHELLRDTLLKLRVMGNDENENASIRTLLEFPKEQLLDYYLKKNNNTRTSSVRSKRRRIKNGDSLAEYIWKYYADSLFE | binds | binding [1]: binds; binding [2]: binds; binding [3]: binds; binding [4]: binds

More lines, main results first:

Row | binding (Shu2 (S. cerevisiae)) | Binder | other results
5 | binds | Psy3 K52A (protein, UniProt Q12318 1-242) MEVLKNIRIYPLSNFITSTKNYINLPNELRNLISEEQESKLGFLHIIESDFAPSVALQKLVNCTTGDEKILIIDIVSIWSQQKQRQHGAIYMNSLSCINITGLIVFLELLYDSPMDALRRCQVDNFNFQLRGIVIDNLSFLNFESDKNYDVINLSKFEKLFKILRKLREFLGCWIITKSFPTDFYNGIENTLVDKWSIKRKSGVTLYPTKLPDSYMKGMDLIIYREVVDGRPQYRRIAALEE | 
6 | binds | Csm2 K189A/R190A/R191A/R192A (protein, UniProt P40465 1-213) MEYEDLELITIWPSPTKNKLCQFIKQNLSKEHVVTQLFFIDATSSFPLSQFQKLVPPTLPENVRIYENIRINTCLDLEELSAITVKLLQILSMNKINAQRGTEDAVTEPLKIILYINGLEVMFRNSQFKSSPQRSHELLRDTLLKLRVMGNDENENASIRTLLEFPKEQLLDYYLKKNNNTRTSSVRSAAAAIKNGDSLAEYIWKYYADSLFE | 
